Values from PubChem BioAssay AID743454 (Peter MacCallum Cancer Centre, 2014)

Screen: 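Knock-downs lowering viability or raising caspase 3/7 activity in vorinostat-treated resistant cells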 (primary screen)
Cell system: human HCT116-VR colon cancer cells, selected for vorinostat resistance
Reagent: siRNA pool against human genes, 40 nM siRNA pool
Timing: vorinostat for 24 h, read-out about 72 h after transfection
Challenge: vorinostat at 2.5 µM final
Read-out: 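Two measures, CellTiter-Fluor viability and luminescent caspase 3/7 activity, each as fold change against same-plate mock wells, mean of duplicates, then screen-wide robust z-score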
Direction: viability robust z-score: higher = more viable cells than screen typical; caspase robust z-score: higher = more caspase 3/7 activity than screen typical
Active means: 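a knock-down is a hit when classed RV1 or RV2 for lowered viability, or CA1 or CA2 for caspase activation; those lethal without drug were dropped; hits were retested singly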
This is an unselected part of about 18,000 reagents tested. Of all reagents, 450 (2.5%) got an active call. 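Single biological run; no consistent viability z cut-off exists, so the class columns, not z-scores, define the calls.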

Target gene	viability hit class	caspase hit class	viability robust z-score	caspase robust z-score	Call
CEP126	no change	no change	0.7	-0.74	inactive
CCDC102A	no change	no change	-0.41	1.46	inactive
BOD1	no change	no change	-1.26	-0.95	inactive
CAPN7	no change	no change	-0.24	-0.26	inactive
ARL2	no change	no change	-0.43	-1	inactive
OR5T2	no change	no change	-0.51	2.17	inactive
LIPN	no change	no change	-1.02	0.28	inactive
ATOH8	no change	no change	0.08	-0.63	inactive
LIN37	no change	no change	-0.26	1.91	inactive
CFAP206	no change	no change	-0.1	-0.3	inactive
OR4F5	no change	no change	0.1	-0.82	inactive
RNF11	no change	no change	-0.13	-0.73	inactive
RRP15	no change	no change	-1.14	-0.14	inactive
MIP	no change	no change	1.4	-0.42	inactive
BCAS1	no change	no change	1.06	-0.4	inactive
KRT222	no change	no change	0.65	0.57	inactive
GRK2	no change	no change	-0.3	-0.06	inactive
ZNF662	no change	no change	-0.54	-0.36	inactive
GALM	no change	no change	1.98	0.12	inactive
POC1B	no change	no change	0.07	-0.5	inactive
IHO1	no change	no change	0.5	0.7	inactive
PLXDC1	no change	no change	-1.27	0.02	inactive
ADAM28	no change	no change	0.24	0.13	inactive
JARID2	no change	no change	-0.86	-0.98	inactive
ABCG1	no change	no change	2.18	3.85	inactive
STAG1	no change	no change	0.76	-0.61	inactive
SGPP2	no change	no change	0.1	-0.6	inactive
SGCA	no change	no change	-0.12	1.59	inactive
ZNF474	no change	no change	1.47	-0.17	inactive
ECEL1	no change	no change	-0.84	0.8	inactive
PTGR2	no change	no change	0.54	-0.64	inactive
RBMS1	no change	no change	-0.32	0.19	inactive
RPS6KA6	no change	no change	-0.38	1.97	inactive
SHH	no change	no change	-0.82	-1.17	inactive
TLR4	no change	no change	-0.88	-0.53	inactive

Reprinted from above for reference:
Target gene	viability hit class	caspase hit class	viability robust z-score	caspase robust z-score	Call
OR5T2	no change	no change	-0.51	2.17	inactive
LIPN	no change	no change	-1.02	0.28	inactive
ATOH8	no change	no change	0.08	-0.63	inactive

The listing continues:
Target gene	viability hit class	caspase hit class	viability robust z-score	caspase robust z-score	Call
GOLGA8F	no change	no change	0.07	-0.57	inactive
GTF2IRD2B	no change	no change	0.22	0.58	inactive
NKD2	no change	no change	0.4	-0.24	inactive
STK38	no change	no change	-0.53	-0.65	inactive
LRCH1	no change	no change	0.44	-0.35	inactive
LACRT	no change	no change	0.17	2.06	inactive
RNASE11	no change	no change	0.3	-0.5	inactive
DNM3	no change	no change	-0.12	-0.28	inactive
STK32C	no change	no change	1.34	-0.22	inactive
STPG2	no change	no change	0.67	-0.8	inactive
ZNF322P1	no change	no change	-1.08	2.95	inactive
CCDC120	no change	no change	1.27	1.62	inactive
POLE4	no change	no change	-1.11	-0.6	inactive
FERD3L	no change	no change	0.44	0.01	inactive
UACA	no change	no change	1.2	-0.68	inactive
PYROXD1	no change	no change	0.24	-0.06	inactive
HVCN1	no change	no change	-2.45	1.41	inactive
UQCRC1	no change	no change	-0.24	0.72	inactive
PARD3	no change	no change	-0.73	-1.21	inactive
HMGN3	no change	no change	0.4	-1.07	inactive
NAE1	no change	no change	1.03	-0.92	inactive
PI3	no change	no change	-0.75	2.84	inactive
